Measurements taken from patent US6703371B1, “Preparations for reducing oxygen consumption during physical efforts” (priority 1999, dated 2004).
Values joined by “and” are separate entries in the source; they are usually repeats but may differ in a detail not shown here. Equal values may be shown once. For some assays here: At least one read-out could not be matched to a standard name with certainty. For some assays here: At least one structure is not confirmed: it was looked up by name or label, or the drawing left a doubt.

Assays:
[1] = Oxygen-sparing action during physical work, general findings in the description; type: in vivo; settings: result in words
test subject = test: Bicycle ergometer test at 100 W: antagonism between inactive (1st dosage) and active (2nd dosage) substances (Example 1b); type: in vivo, human; settings: 1st dosage 50 mg in 20 ml of water; 10-minute test at 100 W
Method: 13 to Mar. 6, 1999, with a subject in good physical condition under standard conditions. The subject was required each morning in the fasting state to perform successively (without interruption) at mechanical power output of 100 W, 125 W and 150 W, each lasting 10 minutes (total test duration 30 minutes each time). […] The heat production induced by mechanical exertion was calculated from the changes in the heart rate. An alternative possibility is also to determine it on the basis of the increase in humidity caused by the perspiration (the tests are carried out in a closed room) or reduction in weight (1 g of water=2.26 kJ). […]
It is known that the oxygen uptake can be determined by measuring the heart rate as a function of the mechanical exertion. […] Since the stroke volume is essentially constant irrespective of the intensity of the mechanical work, and the increased oxygen demand caused by the increase in work results in an increase in the heart rate, the quantity of the transported oxygen can be established by determining the additional heartbeats caused by the work. […]

SMILES | Suitability for reducing the oxygen consumption during physical work [1] | Average heart rate after 1st dosage (test subject)
CN1CCC(=C2c3ccccc3C=Cc3ccccc32)CC1 [cyproheptadine] | suitable | –
OCCN1CCN(CCCN2c3ccccc3C=Cc3ccccc32)CC1 [opipramol] | – | 118.0 per minute and 121.4 per minute
